Measurements reported in PubChem BioAssay AID504444 (National Center for Advancing Translational Sciences (NCATS), 2011).
In all, about 360,000 compounds went through this assay and about 7,500 (2.1%) were called active. Inconclusive results, whose numbers are uncertain, are shown with a selection of clear calls. The call rests on the fitted dose curve; in most records, active means well fitted inhibition curve with a large enough effect; inconclusive means small, poorly fitted or top-dose-only effect, or effect the other way; inactive means flat fitted curve, though single readings scatter. A potency beside an inconclusive call is a rough fit, not a confirmed value.

assay: Nrf2 qHTS screen for inhibitors; settings: A549 ARE-Fluc reporter, luciferase luminescence, 18-24 h; activity change, negative = inhibition: at 46 µM (top of the series); further: nearly all actives have a fitted effect of over 60% in size
From the text: NIH Molecular Libraries Probe Production Network [MLPCN]
NIH Chemical Genomics Center [NCGC]
Assay Provider: Shyam Biswal, Johns Hopkins University
Nrf2 is a transcription factor that maintains cellular redox homoestasis and protects cells from xenobiotics. Nrf2 binds to the antioxidant response element (ARE) to induce gene expression of a broad spectrum of genes that encode for antioxidants. […] Finding a small molecule that act as an inhibitor of Nrf2 function would represent a novel therapeutic target that could lead to improvement in survival of patients undergoing chemo- and/or radio- therapy.
This is the Nrf2 activity measured in the luminescent read.
1. Shibata, T., et al., Genetic Alteration of Keap1 Confers Constitutive Nrf2 Activation and Resistance to Chemotherapy in Gallbladder Cancer. Gastroenterology, 2008.
2. Sjoblom, T., et al., The consensus coding sequences of human breast and colorectal cancers. Science, 2006. 314(5797): p. 268-74.
NCGC Assay Protocol Summary:
A concentration-response assay was performed with A549 ARE_Fluc cells which are suspended in 5% FBS OPTI-MEM. Five uL were dispensed into 1536-well white TC-treated plate using the Kalypsys dispenser to achieve a density of 5000 cells/well in all columns except column 1. The plate is incubated at 37deg C at 5% CO2 for 2 hours before 23 nL of compounds are added with the Kalypsys pin tool equipped with a 1,536-pin array containing 10-nL slotted pins (FP1S10, 0.457-mm diameter, 50.8 mm long; V&P Scientific). The control compounds Budesonide and Staurosporine are both added at a concentration of 2mM and Budesonide is also added as a 1:10 titration, starting at 200uM, to achieve dose-response. After an 18-24 hour incubation at 37deg C at 5% CO2, 5ul of medium is added to column 1. Afterwards 1ul of 5x of CellTiter-Fluor (Promega) is added to every well. The plate is then incubated at 37deg C at 5% CO2 for 30 minutes before they are read on the ViewLux (Perkin Elmer) for a fluorescent read Ex=405(10)/Em=525(10) for a 3 second exposure, 2x binning, and high gain. Then 3 uL of 3x BugLite is dispensed into all wells and the plate is incubated at ambient room temperature for 15 minutes. Afterwards another ViewLux read is performed using the clear filter to get a luminescent read with the settings of 40 second exposure, 2x binning, and high gain. Cytotoxicity is assessed through the first fluorescent read and then biochemical activity against Nrf2 is measured in the luminescent read.
On the % scale 0 is the no-effect control and ±100 the full control effect; potency means the concentration at half of the fitted maximal effect.

Structure (SMILES)	Potency	activity change, negative = inhibition
Cc1cc(S(=O)(=O)NCc2ccccc2)ccc1OCC(=O)NCC1CCCO1 (stereo unspecified)	inconclusive: 16.4 µM [falling, partial curve]	–
Cc1sc2ncnc(N3CCC(C(=O)Nc4ccc(Cl)c(Cl)c4)CC3)c2c1C	inconclusive: 16.4 µM [falling, single point]	–
COC(=O)CSc1nc2ccccn2c(=O)c1C=O	inconclusive: 18.4 µM [activator, partial curve]	–
N#Cc1nc(COc2cccc(Cl)c2)oc1NCc1ccncc1	inconclusive: 0.461 µM [falling, full curve, poor fit]	–
Clc1ccc(-c2csc(N3CCC(c4ccccc4)C3)n2)cc1 (stereo unspecified)	inconclusive: 23.1 µM [activator, partial curve]	–
Cc1ccccc1NS(=O)(=O)c1nnc(NC(=O)c2ccco2)s1	inconclusive: 29.1 µM [falling, single point]	–
Cc1c(P(=S)(c2ccccc2)c2ccccc2)c2ccccc2n1CCc1ccccc1	–	inactive: 2.98%
COc1ccc(C(=O)NCC(=O)N2CCc3ccccc3C2)cc1	–	inactive: 5.43%
CC(C)C[C@@H](CN1CCCC1CN1C(=S)NC[C@@H]1Cc1ccc(O)cc1)N1C[C@H](Cc2ccc(O)cc2)N(CC2CCCCCC2)C1=S (stereo partly specified)	active: 20.6 µM	–
CC(=O)N1CCN(Cc2nc3cc(NC(=O)COc4cccc(C)c4)ccc3n2C)CC1	active: 23.1 µM	–
ClCCn1cnc2c(SCc3ccccc3Cl)ncnc21	inconclusive: 1.03 µM [activator, full curve]	–
O=C(CCc1ccc(O)cc1)NNC(=S)NCCc1ccccc1	inconclusive: 29.1 µM [falling, single point]	–
Cc1ccccc1OCc1ccc(-c2nc(C#N)c(N3CCC(C(N)=O)CC3)o2)o1	inconclusive: 20.6 µM [falling, partial curve]	–
Cc1ccc2c(CC(=O)NCc3cccs3)coc2c1	inconclusive: 23.1 µM [activator, single point]	–
COc1ccc(NC(=O)CN(C)S(=O)(=O)c2ccc(Br)s2)cc1	inconclusive: 20.6 µM [falling, single point]	–
Cc1cc2c(s1)c1cnn(Cc3cccc([N+](=O)[O-])c3)c(=O)c1n2C	–	inactive: -17%
Cc1ccc(C)c(S(=O)(=O)N2CCCCC2CCNC(=O)C(=O)NC2CCCC2)c1 (stereo unspecified)	inconclusive: 29.1 µM [falling, single point]	–
O=C(CN1CCN(C(=O)c2ccco2)CC1)Nc1ccc(Cl)c(S(=O)(=O)N2CCOCC2)c1	inconclusive: 29.1 µM [falling, single point]	–
Fc1ccc(C2CCCN2Cc2nc(Cc3ccccc3F)no2)cc1 (stereo unspecified)	–	inactive: 0.348%
O=C1CCc2cc(S(=O)(=O)Nc3ccc(F)c(Cl)c3)ccc2N1	inconclusive: 18.4 µM [falling, single point]	–
CC(=O)c1ccc(N=Nc2ccc(C)cc2)cc1	inconclusive: 13 µM [activator, partial curve]	–
COc1cccc(Nc2nc3ccc(C(=O)c4ccccc4)cc3n3c(C)nnc23)c1	inconclusive: 2.31 µM [falling, full curve]	–

Structure (SMILES)	Potency	activity change, negative = inhibition
COc1ccc2nc(NC(=O)c3cc(S(=O)(=O)N4CCOCC4)ccc3C)sc2c1	inconclusive: 23.1 µM [falling, partial curve]	–
COc1ccc(Cl)cc1NC(=O)CN(C)C(=O)c1cc2c(s1)CCCC2	inconclusive: 29.1 µM [falling, partial curve, poor fit]	–
COc1ccc(NC(=O)C(=O)NCc2ccco2)cc1	inconclusive: 5.8 µM [activator, full curve]	–
Cc1ccc(S(=O)Cc2ccc(C(=O)N3CCN(C4CCCCC4)CC3)o2)cc1 (stereo unspecified)	inconclusive: 6.51 µM [activator, single point]	–
CCOC(=O)N1CCC(NC(=O)c2cc(C(=O)NCc3cccc(Cl)c3)ccc2CO)CC1	inconclusive: 23.1 µM [falling, partial curve, poor fit]	–
CCN(CCCNC(=O)Cn1ncc2c([nH]c3ccc(C)cc32)c1=O)Cc1ccccc1	inconclusive: 25.9 µM [activator, single point]	–
CCCC(=O)Nc1cccc(-c2cn3ccsc3n2)c1	inconclusive: 32.6 µM [activator, single point]	–
Cc1cccc(NC(=O)CSc2nc3ccccc3o2)c1	inconclusive: 18.4 µM [activator, partial curve]	–
CCCS(=O)(=O)N1CCN(S(=O)(=O)c2ccccc2[N+](=O)[O-])CC1	–	inactive: 0%
O=C(NCCc1ccc(F)cc1)c1cc(=O)c2ccccc2o1	inconclusive: 14.6 µM [falling, partial curve]	–
CCc1nnc(NC(=O)CC(CN(C)S(=O)(=O)c2ccccc2)c2ccccc2)s1 (stereo unspecified)	inconclusive: 32.6 µM [falling, partial curve, poor fit]	–
Cc1cnc(NC(=O)COc2cccc3c2OC(C)(C)C3)s1	inconclusive: 3.26 µM [activator, full curve]	–
COc1cccc(NC(=O)CN(C)C(=O)c2cc3c(s2)CCCCC3)c1	inconclusive: 32.6 µM [falling, single point]	–
O=C(NNc1ncnc2c1cnn2-c1ccc(F)cc1)c1cccs1	inconclusive: 16.4 µM [falling, partial curve, poor fit]	–
CS(=O)(=O)N(CC(=O)N1CCN(c2cccc(Cl)c2)CC1)C1CCCCC1	–	inactive: -9.86%
O=C(CNc1ccc(Cl)cc1)NNC(=S)NCc1ccccc1	inconclusive: 29.1 µM [falling, single point]	–
Nc1ccc(C(=O)NCCCSc2ccccc2)cc1[N+](=O)[O-]	inconclusive: 9.2 µM [falling, partial curve, poor fit]	–
O=C(CSc1n[nH]c(=O)n1C1CC1)Nc1ccc(OC(F)(F)F)cc1	inconclusive: 14.6 µM [falling, partial curve]	–
COc1ccc(N2CCN(c3oc(Cc4ccccc4)nc3C#N)CC2)cc1	inconclusive: 20.6 µM [falling, single point]	–
COc1ccc(CSc2nnnn2Cc2ccccc2)cc1OC	inconclusive: 0.92 µM [falling, partial curve, poor fit]	–
COC(=O)c1cccc(S(=O)(=O)N2CCC(C)CC2)c1	–	inactive: -6.29%
CC(C)(C)OC(=O)N/N=C\c1ccc(OC(=O)c2cccs2)cc1	inconclusive: 10.3 µM [activator, partial curve]	–

Single values from the results shown.
Clc1ccc(-c2csc(N3CCC(c4ccccc4)C3)n2)cc1 (stereo unspecified) – Potency: inconclusive: 23.1 µM [activator, partial curve]
COc1cccc(Nc2nc3ccc(C(=O)c4ccccc4)cc3n3c(C)nnc23)c1 – Potency: inconclusive: 2.31 µM [falling, full curve]

Additional entries follow.

Structure (SMILES)	Potency	activity change, negative = inhibition
C=C1CN(Cc2ccccc2)S(=O)(=O)c2ccccc21	inactive	–
CCCNC(=O)c1cnc2c(-c3ccc(OCC)c(OCC)c3)c(C)nn2c1-c1ccccc1	inconclusive: 18.4 µM [falling, partial curve]	–
Cc1onc(-c2c(Cl)cccc2Cl)c1C(=O)Nc1ccc(Cl)cn1	inconclusive: 2.91 µM [activator, full curve, poor fit]	–
COc1ccc(S(=O)(=O)N2CCCCC2)cc1NC(=O)C1CC(=O)N(c2ccc3c(c2)OCCO3)C1 (stereo unspecified)	active: 23.1 µM	–
C/C(=N/NC(=O)c1ccc(Br)o1)c1cccc(NC(=O)c2ccc(F)cc2)c1	–	inactive: -22.8%
CC1CCN(CC(=O)Nc2cccc(C(=O)Nc3cccc(C(F)(F)F)c3)c2)CC1	–	inactive: 29.9%
CCN(c1ccccc1)S(=O)(=O)c1ccc(C(=O)N(C)Cc2cccs2)cc1	–	inactive: -23.2%
CCOC(=O)c1cc(C)n(CC2CCC(C(=O)Nc3cc(OC)cc(OC)c3)CC2)c1C (stereo unspecified)	inconclusive: 11.6 µM [falling, partial curve, poor fit]	–
Cc1ccnc(NC(=O)CCC(=O)N(CC(=O)NCc2ccc(F)cc2)CC2CCCO2)c1 (stereo unspecified)	inconclusive: 29.1 µM [activator, single point]	–
CCCc1cc(=O)oc2cc(C)cc(OC(C)C(=O)NCC(O)c3ccccc3)c12 (stereo unspecified)	inconclusive: 4.61 µM [falling, full curve, poor fit]	–
COc1ccc(-c2nc(SCC(=O)Nc3ccc4c(c3)OCCO4)c(-c3ccccc3)[nH]2)cc1	inconclusive: 18.4 µM [falling, single point]	–
CCCCN(CC(=O)Nc1cccc(S(=O)(=O)N2CCCC2)c1)Cc1nc2ccccc2c(=O)[nH]1	inconclusive: 1.84 µM [falling, partial curve, poor fit]	–
Cc1ccc(OCC(=O)N2CCc3ccccc32)cc1	inconclusive: 29.1 µM [activator, single point]	–
CCOC(=O)/C(C#N)=C/c1ccc(-c2ccc(C)cc2)o1	inconclusive: 20.6 µM [activator, partial curve, poor fit]	–
Cc1nn(-c2ccc(F)cc2F)c2c1-c1nc(N3CCCC3)ncc1CC2	inconclusive: 18.4 µM [falling, single point]	–
CC1C/C(=N/NC(=O)c2cccc(F)c2)c2ccc(O)cc2C1 (stereo unspecified)	–	inactive: -3.25%
Nc1nonc1-c1noc(CCCN2C(=O)c3ccccc3C2=O)n1	inconclusive: 8.91 µM [activator, partial curve]	–
CCn1c(SCC(=O)N2CCc3ccccc32)nnc1-c1c[nH]c2ccccc12	inconclusive: 13 µM [falling, partial curve]	–
O=C(/C=C/c1ccco1)Nc1cccnc1Cl	inconclusive: 14.6 µM [activator, partial curve, poor fit]	–
O=C(NCc1ccccn1)c1ccc(CNS(=O)(=O)c2ccc(F)cc2)cc1	–	inactive: -5.14%
COc1ccc(C(=O)C2CCN(C(=O)c3ccc(F)cc3)CC2)cc1	inconclusive: 25.9 µM [falling, single point]	–
CCC(C)n1c(/C=C/c2ccccc2)nc2ccccc21 (stereo unspecified)	–	inactive: 13.4%
